# Results as given in PubChem BioAssay AID504648 (National Center for Advancing Translational Sciences (NCATS), 2011).
# Hit rate of the full screen: of about 390,000 compounds, about 610 (0.16%) were called active. Inconclusive results, whose numbers are uncertain, are shown with a selection of clear calls. Calls come from the whole dose curve; as a rule, active = well fitted inhibition curve with a large enough effect; inconclusive = small, poorly fitted or top-dose-only effect, or effect the other way, or another doubt; inactive = no such curve, though single readings can be large or run the other way. Where the call is inconclusive, the potency comes from a doubtful curve fit.
# Assay: Nrf2 qHTS screen for inhibitors: counterscreen for cytotoxicity
# Details: A549 ARE-Fluc cells, CellTiter-Fluor viability, 18-24 h; activity change, negative = cytotoxicity: at 46 µM (top of the series)
# Method in brief: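 A549 ARE_Fluc cells in 5% FBS OPTI-MEM were exposed to compounds in concentration-response for 18-24 h at 37 deg C. Viability was read by CellTiter-Fluor fluorescence (Ex 405/Em 525) after 30 min, before the luciferase read.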
# % is set by controls: 0 for no effect and ±100 for the full control effect; potency is the fitted concentration of half-maximal effect.
Compound,"activity change, negative = cytotoxicity",Potency
CCN1CCN(CCNC(=O)c2cn(Cc3ccccc3F)nn2)CC1,inactive: 13.6%,–
COc1ccc(C2(CNC(=O)/C=C/c3ccco3)CCCC2)cc1OC,inactive: -7.27%,–
COc1ccc(-c2c(C#N)sc(C(N)=O)c2-c2ccc(OC)cc2)cc1,–,"inconclusive: 29.1 µM [activator, single point]"
Cc1nc(/N=C(\N)NC(=O)NC2CCCCC2)nc2ccccc12,–,"inconclusive: 29.1 µM [falling, single point]"
COc1cc(C(=O)Nc2nc(-c3ccc(C)cc3)cs2)ccc1OCC(=O)N1CCOCC1,inactive: 7.27%,–
N#Cc1nc(COc2ccc(Cl)cc2)oc1NCc1ccc2c(c1)OCO2,inactive: -6.75%,–
CC[C@]12c3[nH]c4cc(-c5ccco5)ccc4c3CCN1C(=O)[C@@H](CC(=O)NCCC1=CCCCC1)C[C@@H]2C(=O)N1CCN(C(=O)c2ccco2)CC1,inactive: -24.7%,–
Cc1ccc(CCC(=O)Nc2ncc(Cc3cc(Cl)ccc3Cl)s2)o1,–,"inconclusive: 14.6 µM [falling, partial curve]"
COc1cc(OC)c2ccc(=O)oc2c1C(CCN1CCCC(C)C1)c1ccc(N(C)C)cc1 (stereo not given),–,"inconclusive: 9.2 µM [falling, partial curve]"
N#CC1=C(N)NC(SCc2ccc(F)cc2)=C(C#N)C12CCCCC2,–,"inconclusive: 18.4 µM [falling, single point]"
Cc1c(N=Nc2ccc(O)cc2)c(=O)n(-c2ccccc2)n1C,–,"inconclusive: 10.3 µM [falling, partial curve]"
Cc1ccc(C(=O)N/C(=C\c2ccc(Cl)cc2)C(=O)NC2CCCCC2)cc1,inactive: -15.3%,–
CC(=O)Oc1ccc2c(C)cc(=O)oc2c1C(=O)c1ccccc1,inactive: 1.05%,–
COc1ccc(/C=C2\N=C(c3ccc(C)cc3)OC2=O)cc1,inactive: -0.759%,–
Cc1ccc(C)c(N2CCN(CCCNC(=O)c3ccc4nc(CCc5ccccc5)oc4c3)CC2)c1,–,"inconclusive: 25.9 µM [falling, single point]"
COc1ccc(NC(=O)Cc2coc3ccc4ccccc4c23)cc1S(=O)(=O)N1CCOCC1,–,"inconclusive: 32.6 µM [falling, partial curve, poor fit]"
O=c1[nH]cnc2c1c(-c1ccccc1)cn2-c1ccc(F)cc1,–,"inconclusive: 29.1 µM [falling, single point]"
C/C(=C\C(=O)c1ccc(Br)cc1)NNC(=O)c1ccccc1,–,"inconclusive: 23.1 µM [falling, partial curve, poor fit]"
Cc1nnc(NC(=O)c2ccc(S(=O)(=O)N(C)Cc3ccccc3)cc2)o1,inactive: -23.2%,–
Cc1cc(C(=O)Nc2sc3c(c2C#N)CCC(C)C3)no1 (stereo not given),–,"inconclusive: 29.1 µM [activator, single point]"

# Entries of single compounds as entered above. Order of values: activity change, negative = cytotoxicity	Potency
# COc1ccc(-c2c(C#N)sc(C(N)=O)c2-c2ccc(OC)cc2)cc1 in the list: –	inconclusive: 29.1 µM [activator, single point]
# Cc1cc(C(=O)Nc2sc3c(c2C#N)CCC(C)C3)no1 (stereo not given) in the list: –	inconclusive: 29.1 µM [activator, single point]
